Values from PubChem BioAssay AID743454 (Peter MacCallum Cancer Centre, 2014).
Test: 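Knock-downs lowering viability or raising caspase 3/7 activity in vorinostat-treated resistant cells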 (primary screen). Cells: human HCT116-VR colon cancer cells, selected for vorinostat resistance. Reagent: siRNA pool against human genes, 40 nM siRNA pool. Timing: vorinostat for 24 h, read-out about 72 h after transfection. Conditions: vorinostat at 2.5 µM final. Measurement: 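Two measures, CellTiter-Fluor viability and luminescent caspase 3/7 activity, each as fold change against same-plate mock wells, mean of duplicates, then screen-wide robust z-score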. Direction: viability robust z-score: higher = more viable cells than screen typical; caspase robust z-score: higher = more caspase 3/7 activity than screen typical. Hit rule: 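Hits are knock-downs in viability class RV1/RV2 or caspase class CA1/CA2, excluding ones that killed cells in the no-drug cell-count arm; hits then retested with single siRNAs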.
In all, the deposit lists about 18,000 reagents; shown is an unselected part. Over the whole deposit, 450 (2.5%) are marked active. 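Single biological run; no consistent viability z cut-off exists, so the class columns, not z-scores, define the calls.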 Unmarked entries are inactive. No sequences are given here.

Against TMEM129, the values are viability hit class no change; caspase hit class no change; viability robust z-score 0.15; caspase robust z-score 0.47.
CMPK2 scored viability hit class no change; caspase hit class no change; viability robust z-score 0.34; caspase robust z-score -0.57.
Depletion of GATB gave: viability hit class no change; caspase hit class no change; viability robust z-score 0.4; caspase robust z-score 1.29.
With knock-down of BCL2L10 the results were viability hit class no change; caspase hit class no change; viability robust z-score -0.71; caspase robust z-score 0.28.
Depletion of LPAR6 came out at: viability hit class no change; caspase hit class no change; viability robust z-score 0.79; caspase robust z-score -1.02.
With knock-down of TMEM229B the results were viability hit class no change; caspase hit class no change; viability robust z-score -1.56; caspase robust z-score -0.98.

An excerpt from above, reduced to “viability hit class”.
CMPK2 = no change
GATB = no change

The listing continues:
PTX3 gave viability hit class no change; caspase hit class no change; viability robust z-score 1.19; caspase robust z-score -0.67.
Silencing of CCDC71L came out at: viability hit class no change; caspase hit class no change; viability robust z-score 0.2; caspase robust z-score 0.24.
After knock-down of YIPF7, the record shows viability hit class no change; caspase hit class no change; viability robust z-score -0.72; caspase robust z-score -0.76.
Against CACNA1S, the entry reads viability hit class no change; caspase hit class no change; viability robust z-score 0.04; caspase robust z-score 4.29.
Knock-down of BPIFA3 resulted in: viability hit class no change; caspase hit class no change; viability robust z-score 0.21; caspase robust z-score -0.26.
After knock-down of ZNF672, the screen gave viability hit class no change; caspase hit class no change; viability robust z-score -1.2; caspase robust z-score 2.04.
